Laboratory results published in PMC6796902.

The chains behind the UniProt entries cited, without tags or fusion partners.
UniProt Q03164: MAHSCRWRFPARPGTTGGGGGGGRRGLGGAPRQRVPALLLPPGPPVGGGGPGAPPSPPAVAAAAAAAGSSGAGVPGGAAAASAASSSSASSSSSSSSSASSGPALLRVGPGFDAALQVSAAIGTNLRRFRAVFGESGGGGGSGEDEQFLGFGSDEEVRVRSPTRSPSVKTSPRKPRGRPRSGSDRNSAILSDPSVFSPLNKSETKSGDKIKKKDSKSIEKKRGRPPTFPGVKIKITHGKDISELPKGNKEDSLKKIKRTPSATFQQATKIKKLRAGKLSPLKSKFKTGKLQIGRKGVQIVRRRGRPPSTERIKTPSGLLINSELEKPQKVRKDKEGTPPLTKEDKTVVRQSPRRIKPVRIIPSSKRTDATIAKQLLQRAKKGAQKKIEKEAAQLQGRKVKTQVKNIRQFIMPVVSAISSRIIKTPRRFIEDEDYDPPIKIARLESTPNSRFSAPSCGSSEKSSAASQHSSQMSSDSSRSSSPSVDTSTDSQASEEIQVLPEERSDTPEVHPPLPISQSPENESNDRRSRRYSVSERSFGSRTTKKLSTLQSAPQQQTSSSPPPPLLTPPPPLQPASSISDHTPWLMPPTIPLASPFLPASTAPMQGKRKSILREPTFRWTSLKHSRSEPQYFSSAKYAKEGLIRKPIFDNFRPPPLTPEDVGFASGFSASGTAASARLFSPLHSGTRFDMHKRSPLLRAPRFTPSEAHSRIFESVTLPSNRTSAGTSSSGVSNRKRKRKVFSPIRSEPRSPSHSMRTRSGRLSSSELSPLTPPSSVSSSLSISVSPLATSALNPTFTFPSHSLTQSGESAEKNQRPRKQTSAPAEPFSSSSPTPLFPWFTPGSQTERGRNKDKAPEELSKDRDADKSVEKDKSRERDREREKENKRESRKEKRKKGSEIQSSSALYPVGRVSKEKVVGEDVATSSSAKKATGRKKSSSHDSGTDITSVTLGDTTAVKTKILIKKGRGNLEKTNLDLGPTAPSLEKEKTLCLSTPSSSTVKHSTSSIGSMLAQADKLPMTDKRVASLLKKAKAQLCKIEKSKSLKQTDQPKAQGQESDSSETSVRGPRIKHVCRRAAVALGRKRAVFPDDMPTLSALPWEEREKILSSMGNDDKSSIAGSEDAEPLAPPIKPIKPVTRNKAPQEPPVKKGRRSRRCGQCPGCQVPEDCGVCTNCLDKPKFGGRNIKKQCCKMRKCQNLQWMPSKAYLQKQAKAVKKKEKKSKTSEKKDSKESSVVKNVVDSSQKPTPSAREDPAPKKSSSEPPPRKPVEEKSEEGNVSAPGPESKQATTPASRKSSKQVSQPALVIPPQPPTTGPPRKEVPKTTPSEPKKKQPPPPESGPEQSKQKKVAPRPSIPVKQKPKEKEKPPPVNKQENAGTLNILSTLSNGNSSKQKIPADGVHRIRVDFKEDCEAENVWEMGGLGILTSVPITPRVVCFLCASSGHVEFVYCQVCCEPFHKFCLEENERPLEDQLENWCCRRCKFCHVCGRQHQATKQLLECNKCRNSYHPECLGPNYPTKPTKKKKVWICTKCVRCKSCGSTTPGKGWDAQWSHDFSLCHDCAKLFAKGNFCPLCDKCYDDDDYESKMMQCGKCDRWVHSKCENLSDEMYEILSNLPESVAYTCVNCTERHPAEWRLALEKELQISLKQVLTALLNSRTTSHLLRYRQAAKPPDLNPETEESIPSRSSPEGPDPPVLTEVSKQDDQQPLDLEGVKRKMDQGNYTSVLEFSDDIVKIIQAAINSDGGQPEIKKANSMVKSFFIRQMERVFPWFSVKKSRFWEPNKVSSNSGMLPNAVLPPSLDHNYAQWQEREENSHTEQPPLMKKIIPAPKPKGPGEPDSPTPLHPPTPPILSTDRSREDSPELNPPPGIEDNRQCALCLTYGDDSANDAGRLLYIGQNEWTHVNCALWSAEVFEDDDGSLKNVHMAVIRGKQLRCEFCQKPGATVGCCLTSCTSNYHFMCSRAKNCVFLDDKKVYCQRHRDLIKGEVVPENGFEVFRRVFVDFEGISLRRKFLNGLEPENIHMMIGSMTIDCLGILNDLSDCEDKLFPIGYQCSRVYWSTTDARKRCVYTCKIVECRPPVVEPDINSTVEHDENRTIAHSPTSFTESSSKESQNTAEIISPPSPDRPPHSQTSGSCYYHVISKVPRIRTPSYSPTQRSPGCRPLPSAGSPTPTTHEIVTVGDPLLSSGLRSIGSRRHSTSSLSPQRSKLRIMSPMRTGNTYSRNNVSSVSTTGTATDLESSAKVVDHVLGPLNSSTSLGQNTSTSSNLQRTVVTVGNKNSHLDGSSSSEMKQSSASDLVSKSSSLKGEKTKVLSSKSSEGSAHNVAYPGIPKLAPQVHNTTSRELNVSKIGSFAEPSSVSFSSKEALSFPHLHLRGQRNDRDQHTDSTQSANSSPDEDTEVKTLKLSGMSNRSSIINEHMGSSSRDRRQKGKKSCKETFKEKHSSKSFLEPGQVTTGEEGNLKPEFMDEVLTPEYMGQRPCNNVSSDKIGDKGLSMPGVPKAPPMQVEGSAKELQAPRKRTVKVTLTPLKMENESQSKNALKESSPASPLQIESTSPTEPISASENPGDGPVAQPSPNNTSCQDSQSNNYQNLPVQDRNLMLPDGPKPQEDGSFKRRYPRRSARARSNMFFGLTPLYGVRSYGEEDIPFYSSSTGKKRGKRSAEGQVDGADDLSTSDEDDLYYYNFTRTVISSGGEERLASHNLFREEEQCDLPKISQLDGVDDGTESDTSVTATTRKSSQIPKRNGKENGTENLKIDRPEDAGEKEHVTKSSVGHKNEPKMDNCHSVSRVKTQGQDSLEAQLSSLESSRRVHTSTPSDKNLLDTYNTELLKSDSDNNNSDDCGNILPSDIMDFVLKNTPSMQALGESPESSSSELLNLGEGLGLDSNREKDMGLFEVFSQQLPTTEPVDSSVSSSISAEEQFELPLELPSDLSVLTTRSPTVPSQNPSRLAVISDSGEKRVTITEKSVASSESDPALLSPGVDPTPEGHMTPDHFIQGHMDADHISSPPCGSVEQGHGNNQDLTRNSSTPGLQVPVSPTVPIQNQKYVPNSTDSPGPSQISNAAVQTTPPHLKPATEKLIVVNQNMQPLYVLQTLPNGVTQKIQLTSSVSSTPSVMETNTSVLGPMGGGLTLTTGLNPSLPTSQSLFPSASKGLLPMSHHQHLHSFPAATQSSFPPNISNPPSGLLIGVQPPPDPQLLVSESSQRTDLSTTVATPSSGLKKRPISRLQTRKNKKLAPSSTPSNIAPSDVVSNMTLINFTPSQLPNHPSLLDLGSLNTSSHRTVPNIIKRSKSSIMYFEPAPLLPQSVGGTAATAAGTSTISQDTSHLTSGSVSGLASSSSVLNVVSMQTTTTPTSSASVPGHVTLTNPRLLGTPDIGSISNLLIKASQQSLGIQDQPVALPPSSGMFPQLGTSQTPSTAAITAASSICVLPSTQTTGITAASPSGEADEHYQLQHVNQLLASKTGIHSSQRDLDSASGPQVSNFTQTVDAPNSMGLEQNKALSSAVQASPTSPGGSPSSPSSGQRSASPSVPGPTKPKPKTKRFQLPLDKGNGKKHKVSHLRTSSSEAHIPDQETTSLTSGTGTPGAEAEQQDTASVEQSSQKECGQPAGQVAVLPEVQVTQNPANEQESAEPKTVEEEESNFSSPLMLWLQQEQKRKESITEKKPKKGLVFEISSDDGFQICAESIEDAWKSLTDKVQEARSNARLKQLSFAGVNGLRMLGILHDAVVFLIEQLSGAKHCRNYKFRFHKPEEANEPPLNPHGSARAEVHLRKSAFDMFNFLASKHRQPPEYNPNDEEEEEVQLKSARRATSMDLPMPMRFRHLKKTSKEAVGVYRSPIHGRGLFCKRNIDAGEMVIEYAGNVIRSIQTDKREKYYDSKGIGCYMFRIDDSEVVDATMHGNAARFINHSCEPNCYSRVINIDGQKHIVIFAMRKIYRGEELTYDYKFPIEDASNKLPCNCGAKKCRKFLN
UniProt O00255: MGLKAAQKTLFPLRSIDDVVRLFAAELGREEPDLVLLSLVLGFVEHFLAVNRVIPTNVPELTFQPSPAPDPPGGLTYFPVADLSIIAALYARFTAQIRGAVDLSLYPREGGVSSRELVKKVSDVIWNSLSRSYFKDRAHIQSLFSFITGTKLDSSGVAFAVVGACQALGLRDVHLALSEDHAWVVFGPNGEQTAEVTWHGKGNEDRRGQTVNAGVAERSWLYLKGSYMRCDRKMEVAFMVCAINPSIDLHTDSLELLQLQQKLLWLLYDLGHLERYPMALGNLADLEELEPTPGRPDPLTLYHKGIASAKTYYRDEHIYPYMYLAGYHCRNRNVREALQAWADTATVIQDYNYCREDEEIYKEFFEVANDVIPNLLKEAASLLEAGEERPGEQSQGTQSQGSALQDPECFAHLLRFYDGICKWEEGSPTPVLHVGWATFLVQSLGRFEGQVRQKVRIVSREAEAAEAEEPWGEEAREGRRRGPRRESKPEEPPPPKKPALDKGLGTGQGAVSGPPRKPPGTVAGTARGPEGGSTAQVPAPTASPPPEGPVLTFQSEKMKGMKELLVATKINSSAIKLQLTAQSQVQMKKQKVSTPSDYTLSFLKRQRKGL
UniProt P11940: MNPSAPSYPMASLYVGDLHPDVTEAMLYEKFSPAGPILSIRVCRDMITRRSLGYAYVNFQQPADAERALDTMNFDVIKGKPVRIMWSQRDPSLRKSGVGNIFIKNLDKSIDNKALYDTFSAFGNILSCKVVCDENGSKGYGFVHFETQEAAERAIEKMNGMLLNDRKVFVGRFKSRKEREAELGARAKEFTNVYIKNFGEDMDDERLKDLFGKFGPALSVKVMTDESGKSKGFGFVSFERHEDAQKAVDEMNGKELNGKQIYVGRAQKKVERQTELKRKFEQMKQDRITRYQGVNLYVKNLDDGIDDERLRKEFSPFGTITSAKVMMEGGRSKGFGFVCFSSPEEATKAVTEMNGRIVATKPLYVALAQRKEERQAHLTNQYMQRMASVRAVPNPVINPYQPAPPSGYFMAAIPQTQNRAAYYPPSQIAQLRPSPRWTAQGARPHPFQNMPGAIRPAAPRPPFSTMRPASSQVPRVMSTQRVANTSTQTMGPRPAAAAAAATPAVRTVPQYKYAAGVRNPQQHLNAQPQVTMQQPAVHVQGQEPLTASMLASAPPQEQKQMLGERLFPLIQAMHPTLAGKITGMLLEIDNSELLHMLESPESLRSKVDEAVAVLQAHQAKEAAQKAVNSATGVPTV
UniProt P67809: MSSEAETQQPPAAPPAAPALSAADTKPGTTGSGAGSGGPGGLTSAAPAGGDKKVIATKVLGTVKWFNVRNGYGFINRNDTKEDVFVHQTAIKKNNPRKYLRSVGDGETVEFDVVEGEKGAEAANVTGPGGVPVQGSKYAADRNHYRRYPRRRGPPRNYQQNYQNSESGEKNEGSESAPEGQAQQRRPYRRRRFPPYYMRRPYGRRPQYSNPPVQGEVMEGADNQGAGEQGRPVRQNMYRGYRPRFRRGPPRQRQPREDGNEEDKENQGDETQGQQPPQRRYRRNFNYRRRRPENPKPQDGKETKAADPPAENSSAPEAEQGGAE

B1: UPF1 (protein, UniProt Q92900 1-1129)
chain: MSVEAYGPSSQTLTFLDTEEAELLGADTQGSEFEFTDFTLPSQTQTPPGGPGGPGGGGAGGPGGAGAGAAAGQLDAQVGPEGILQNGAVDDSVAKTSQLLAELNFEEDEEDTYYTKDLPIHACSYCGIHDPACVVYCNTSKKWFCNGRGNTSGSHIVNHLVRAKCKEVTLHKDGPLGETVLECYNCGCRNVFLLGFIPAKADSVVVLLCRQPCASQSSLKDINWDSSQWQPLIQDRCFLSWLVKIPSEQEQLRARQITAQQINKLEELWKENPSATLEDLEKPGVDEEPQHVLLRYEDAYQYQNIFGPLVKLEADYDKKLKESQTQDNITVRWDLGLNKKRIAYFTLPKTDSGNEDLVIIWLRDMRLMQGDEICLRYKGDLAPLWKGIGHVIKVPDNYGDEIAIELRSSVGAPVEVTHNFQVDFVWKSTSFDRMQSALKTFAVDETSVSGYIYHKLLGHEVEDVIIKCQLPKRFTAQGLPDLNHSQVYAVKTVLQRPLSLIQGPPGTGKTVTSATIVYHLARQGNGPVLVCAPSNIAVDQLTEKIHQTGLKVVRLCAKSREAIDSPVSFLALHNQIRNMDSMPELQKLQQLKDETGELSSADEKRYRALKRTAERELLMNADVICCTCVGAGDPRLAKMQFRSILIDESTQATEPECMVPVVLGAKQLILVGDHCQLGPVVMCKKAAKAGLSQSLFERLVVLGIRPIRLQVQYRMHPALSAFPSNIFYEGSLQNGVTAADRVKKGFDFQWPQPDKPMFFYVTQGQEEIASSGTSYLNRTEAANVEKITTKLLKAGAKPDQIGIITPYEGQRSYLVQYMQFSGSLHTKLYQEVEIASVDAFQGREKDFIILSCVRANEHQGIGFLNDPRRLNVALTRARYGVIIVGNPKALSKQPLWNHLLNYYKEQKVLVEGPLNNLRESLMQFSKPRKLVNTINPGARFMTTAMYDAREAIIPGSVYDRSSQGRPSSMYFQTHDQIGMISAGPSHVAAMNIPIPFNLVMPPMPPPGYFGQANGPAAGRGTPKGKTGRGGRQKNRFGLPGPSQTNLPNSQASQDVASQPFSQGALTQGYISMSQPSQMSQPGLSQPELSQDSYLGDEFKSQIDVALSQDSTYQGERAYQHGGVTGLSQY

Target: mixed-lineage leukemia (MLL) protein (human (endogenous in 293T)) (UniProt Q03164)
Experiment: affinity purification with mass spectrometry; MLL affinity purification from total 293T cell extracts, followed by LC/MS analysis

binding | Molecule
binds | MENIN (from UniProt O00255 1-610)
binds | PABPC1 (from UniProt P11940 1-636)
binds | YB-1 (from UniProt P67809 1-324)
binds | B1

These are yes or no findings as the source states them, for the method shown. Binding seen in cells or lysates may run through a third protein. Here binding means that the protein was enriched with, or labelled near, the bait; the list need not be complete.
